From article doi:10.1101/2025.08.07.669166
Read-outs that look alike come from different tables or passages of the source. No constants are given. Whether binding was seen depends on the method and setting. In cells and extracts the contact can be indirect. These calls come from enrichment with a bait or labelling near it, and not all partners need be listed. Values belong to the binder of their own block, whether it stands above or below them.

Sequences of proteins named here, by UniProt entry; tags and fusion partners are left off.
UniProt P04150: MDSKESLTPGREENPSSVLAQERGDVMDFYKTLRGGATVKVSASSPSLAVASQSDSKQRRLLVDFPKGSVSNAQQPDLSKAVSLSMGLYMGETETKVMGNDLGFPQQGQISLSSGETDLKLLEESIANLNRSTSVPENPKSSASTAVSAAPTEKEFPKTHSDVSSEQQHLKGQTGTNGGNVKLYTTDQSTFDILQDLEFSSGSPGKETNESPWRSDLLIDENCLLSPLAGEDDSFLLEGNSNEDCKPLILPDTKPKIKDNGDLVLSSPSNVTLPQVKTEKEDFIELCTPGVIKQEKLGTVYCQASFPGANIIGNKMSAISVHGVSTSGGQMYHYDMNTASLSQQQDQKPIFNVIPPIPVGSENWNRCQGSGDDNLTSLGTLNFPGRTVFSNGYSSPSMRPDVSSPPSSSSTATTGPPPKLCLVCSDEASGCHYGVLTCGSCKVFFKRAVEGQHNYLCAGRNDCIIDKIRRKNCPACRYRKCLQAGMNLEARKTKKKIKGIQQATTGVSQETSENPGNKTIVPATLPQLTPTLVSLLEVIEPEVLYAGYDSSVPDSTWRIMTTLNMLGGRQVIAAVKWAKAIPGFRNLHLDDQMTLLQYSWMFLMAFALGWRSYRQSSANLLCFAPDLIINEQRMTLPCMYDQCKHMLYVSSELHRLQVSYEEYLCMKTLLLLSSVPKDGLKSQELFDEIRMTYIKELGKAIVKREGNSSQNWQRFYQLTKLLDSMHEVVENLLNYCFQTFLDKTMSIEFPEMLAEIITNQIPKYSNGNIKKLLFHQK

Experiments:
Test in all cases: affinity purification with mass spectrometry
[1] = biological target: glucocorticoid receptor (human (endogenous in primary human cells, human cell lines and human PDX tumours)) (UniProt P04150)
[2] = biological target: glucocorticoid receptor (human (endogenous in primary human cells, human cell lines and human PDX tumours)) (UniProt P04150); remark: listed apart in the source
[3] = biological target: glucocorticoid receptor (human (endogenous in primary human cells, human cell lines and human PDX tumours)) (UniProt P04150); remark: listed apart in the source
[4] = biological target: glucocorticoid receptor (human (endogenous in primary human cells, human cell lines and human PDX tumours)) (UniProt P04150); remark: listed apart in the source
[5] = biological target: glucocorticoid receptor (human (endogenous in primary human cells, human cell lines and human PDX tumours)) (UniProt P04150); remark: listed apart in the source
[6] = biological target: glucocorticoid receptor (human (endogenous in primary human cells, human cell lines and human PDX tumours)) (UniProt P04150); remark: listed apart in the source

binding [1]: binds
binding [2]: binds
binding [3]: binds
binding [4]: binds
B1: GRHL1 (protein, UniProt Q9NZI5 1-618)
chain: MTQEYDNKRPVLVLQNEALYPQRRSYTSEDEAWKSFLENPLTAATKAMMSINGDEDSAAALGLLYDYYKVPRERRSSTAKPEVEHPEPDHSKRNSIPIVTEQPLISAGENRVQVLKNVPFNIVLPHGNQLGIDKRGHLTAPDTTVTVSIATMPTHSIKTETQPHGFAVGIPPAVYHPEPTERVVVFDRNLNTDQFSSGAQAPNAQRRTPDSTFSETFKEGVQEVFFPSDLSLRMPGMNSEDYVFDSVSGNNFEYTLEASKSLRQKPGDSTMTYLNKGQFYPITLKEVSSSEGIHHPISKVRSVIMVVFAEDKSREDQLRHWKYWHSRQHTAKQRCIDIADYKESFNTISNIEEIAYNAISFTWDINDEAKVFISVNCLSTDFSSQKGVKGLPLNIQVDTYSYNNRSNKPVHRAYCQIKVFCDKGAERKIRDEERKQSKRKVSDVKVPLLPSHKRMDITVFKPFIDLDTQPVLFIPDVHFANLQRGTHVLPIASEELEGEGSVLKRGPYGTEDDFAVPPSTKLARIEEPKRVLLYVRKESEEVFDALMLKTPSLKGLMEAISDKYDVPHDKIGKIFKKCKKGILVNMDDNIVKHYSNEDTFQLQIEEAGGSYKLTLTEI

binding [5]: binds
binding [1]: binds
B2: SATB1 (protein, UniProt Q01826 1-763)
chain: MDHLNEATQGKEHSEMSNNVSDPKGPPAKIARLEQNGSPLGRGRLGSTGAKMQGVPLKHSGHLMKTNLRKGTMLPVFCVVEHYENAIEYDCKEEHAEFVLVRKDMLFNQLIEMALLSLGYSHSSAAQAKGLIQVGKWNPVPLSYVTDAPDATVADMLQDVYHVVTLKIQLHSCPKLEDLPPEQWSHTTVRNALKDLLKDMNQSSLAKECPLSQSMISSIVNSTYYANVSAAKCQEFGRWYKHFKKTKDMMVEMDSLSELSQQGANHVNFGQQPVPGNTAEQPPSPAQLSHGSQPSVRTPLPNLHPGLVSTPISPQLVNQQLVMAQLLNQQYAVNRLLAQQSLNQQYLNHPPPVSRSMNKPLEQQVSTNTEVSSEIYQWVRDELKRAGISQAVFARVAFNRTQGLLSEILRKEEDPKTASQSLLVNLRAMQNFLQLPEAERDRIYQDERERSLNAASAMGPAPLISTPPSRPPQVKTATIATERNGKPENNTMNINASIYDEIQQEMKRAKVSQALFAKVAATKSQGWLCELLRWKEDPSPENRTLWENLSMIRRFLSLPQPERDAIYEQESNAVHHHGDRPPHIIHVPAEQIQQQQQQQQQQQQQQQAPPPPQPQQQPQTGPRLPPRQPTVASPAESDEENRQKTRPRTKISVEALGILQSFIQDVGLYPDEEAIQTLSAQLDLPKYTIIKFFQNQRYYLKHHGKLKDNSGLEVDVAEYKEEELLKDLEESVQDKNTNTLFSVKLEEELSVEGNTDINTDLKD

binding [6]: binds
binding [1]: binds
B3: ZEB1 (protein, UniProt P37275 1-1124)
chain: MADGPRCKRRKQANPRRNNVTNYNTVVETNSDSDDEDKLHIVEEESVTDAADCEGVPEDDLPTDQTVLPGRSSEREGNAKNCWEDDRKEGQEILGPEAQADEAGCTVKDDECESDAENEQNHDPNVEEFLQQQDTAVIFPEAPEEDQRQGTPEASGHDENGTPDAFSQLLTCPYCDRGYKRFTSLKEHIKYRHEKNEDNFSCSLCSYTFAYRTQLERHMTSHKSGRDQRHVTQSGCNRKFKCTECGKAFKYKHHLKEHLRIHSGEKPYECPNCKKRFSHSGSYSSHISSKKCISLIPVNGRPRTGLKTSQCSSPSLSASPGSPTRPQIRQKIENKPLQEQLSVNQIKTEPVDYEFKPIVVASGINCSTPLQNGVFTGGGPLQATSSPQGMVQAVVLPTVGLVSPISINLSDIQNVLKVAVDGNVIRQVLENNQANLASKEQETINASPIQQGGHSVISAISLPLVDQDGTTKIIINYSLEQPSQLQVVPQNLKKENPVATNSCKSEKLPEDLTVKSEKDKSFEGGVNDSTCLLCDDCPGDINALPELKHYDLKQPTQPPPLPAAEAEKPESSVSSATGDGNLSPSQPPLKNLLSLLKAYYALNAQPSAEELSKIADSVNLPLDVVKKWFEKMQAGQISVQSSEPSSPEPGKVNIPAKNNDQPQSANANEPQDSTVNLQSPLKMTNSPVLPVGSTTNGSRSSTPSPSPLNLSSSRNTQGYLYTAEGAQEEPQVEPLDLSLPKQQGELLERSTITSVYQNSVYSVQEEPLNLSCAKKEPQKDSCVTDSEPVVNVIPPSANPINIAIPTVTAQLPTIVAIADQNSVPCLRALAANKQTILIPQVAYTYSTTVSPAVQEPPLKVIQPNGNQDERQDTSSEGVSNVEDQNDSDSTPPKKKMRKTENGMYACDLCDKIFQKSSSLLRHKYEHTGKRPHECGICKKAFKHKHHLIEHMRLHSGEKPYQCDKCGKRFSHSGSYSQHMNHRYSYCKREAEERDSTEQEEAGPEILSNEHVGARASPSQGDSDERESLTREEDEDSEKEEEEEDKEMEELQEEKECEKPQGDEEEEEEEEEVEEEEVEEAENEGEEAKTEGLMKDDRAESQASSLGQKVGESSEQVSEEKTNEA

binding [1]: binds
B4: TRPS1 (protein, UniProt Q9UHF7 1-1281)
chain: MVRKKNPPLRNVASEGEGQILEPIGTESKVSGKNKEFSADQMSENTDQSDAAELNHKEEHSLHVQDPSSSSKKDLKSAVLSEKAGFNYESPSKGGNFPSFPHDEVTDRNMLAFSSPAAGGVCEPLKSPQRAEADDPQDMACTPSGDSLETKEDQKMSPKATEETGQAQSGQANCQGLSPVSVASKNPQVPSDGGVRLNKSKTDLLVNDNPDPAPLSPELQDFKCNICGYGYYGNDPTDLIKHFRKYHLGLHNRTRQDAELDSKILALHNMVQFSHSKDFQKVNRSVFSGVLQDINSSRPVLLNGTYDVQVTSGGTFIGIGRKTPDCQGNTKYFRCKFCNFTYMGNSSTELEQHFLQTHPNKIKASLPSSEVAKPSEKNSNKSIPALQSSDSGDLGKWQDKITVKAGDDTPVGYSVPIKPLDSSRQNGTEATSYYWCKFCSFSCESSSSLKLLEHYGKQHGAVQSGGLNPELNDKLSRGSVINQNDLAKSSEGETMTKTDKSSSGAKKKDFSSKGAEDNMVTSYNCQFCDFRYSKSHGPDVIVVGPLLRHYQQLHNIHKCTIKHCPFCPRGLCSPEKHLGEITYPFACRKSNCSHCALLLLHLSPGAAGSSRVKHQCHQCSFTTPDVDVLLFHYESVHESQASDVKQEANHLQGSDGQQSVKESKEHSCTKCDFITQVEEEISRHYRRAHSCYKCRQCSFTAADTQSLLEHFNTVHCQEQDITTANGEEDGHAISTIKEEPKIDFRVYNLLTPDSKMGEPVSESVVKREKLEEKDGLKEKVWTESSSDDLRNVTWRGADILRGSPSYTQASLGLLTPVSGTQEQTKTLRDSPNVEAAHLARPIYGLAVETKGFLQGAPAGGEKSGALPQQYPASGENKSKDESQSLLRRRRGSGVFCANCLTTKTSLWRKNANGGYVCNACGLYQKLHSTPRPLNIIKQNNGEQIIRRRTRKRLNPEALQAEQLNKQQRGSNEEQVNGSPLERRSEDHLTESHQREIPLPSLSKYEAQGSLTKSHSAQQPVLVSQTLDIHKRMQPLHIQIKSPQESTGDPGNSSSVSEGKGSSERGSPIEKYMRPAKHPNYSPPGSPIEKYQYPLFGLPFVHNDFQSEADWLRFWSKYKLSVPGNPHYLSHVPGLPNPCQNYVPYPTFNLPPHFSAVGSDNDIPLDLAIKHSRPGPTANGASKEKTKAPPNVKNEGPLNVVKTEKVDRSTQDELSTKCVHCGIVFLDEVMYALHMSCHGDSGPFQCSICQHLCTDKYDFTTHIQRGLHRNNAQVEKNGKPKE

binding [6]: binds
binding [1]: binds
B5: ZEB2 (protein, UniProt O60315 1-1214)
chain: MKQPIMADGPRCKRRKQANPRRKNVVNYDNVVDTGSETDEEDKLHIAEDDGIANPLDQETSPASVPNHESSPHVSQALLPREEEEDEIREGGVEHPWHNNEILQASVDGPEEMKEDYDTMGPEATIQTAINNGTVKNANCTSDFEEYFAKRKLEERDGHAVSIEEYLQRSDTAIIYPEAPEELSRLGTPEANGQEENDLPPGTPDAFAQLLTCPYCDRGYKRLTSLKEHIKYRHEKNEENFSCPLCSYTFAYRTQLERHMVTHKPGTDQHQMLTQGAGNRKFKCTECGKAFKYKHHLKEHLRIHSGEKPYECPNCKKRFSHSGSYSSHISSKKCIGLISVNGRMRNNIKTGSSPNSVSSSPTNSAITQLRNKLENGKPLSMSEQTGLLKIKTEPLDFNDYKVLMATHGFSGTSPFMNGGLGATSPLGVHPSAQSPMQHLGVGMEAPLLGFPTMNSNLSEVQKVLQIVDNTVSRQKMDCKAEEISKLKGYHMKDPCSQPEEQGVTSPNIPPVGLPVVSHNGATKSIIDYTLEKVNEAKACLQSLTTDSRRQISNIKKEKLRTLIDLVTDDKMIENHNISTPFSCQFCKESFPGPIPLHQHERYLCKMNEEIKAVLQPHENIVPNKAGVFVDNKALLLSSVLSEKGMTSPINPYKDHMSVLKAYYAMNMEPNSDELLKISIAVGLPQEFVKEWFEQRKVYQYSNSRSPSLERSSKPLAPNSNPPTKDSLLPRSPVKPMDSITSPSIAELHNSVTNCDPPLRLTKPSHFTNIKPVEKLDHSRSNTPSPLNLSSTSSKNSHSSSYTPNSFSSEELQAEPLDLSLPKQMKEPKSIIATKNKTKASSISLDHNSVSSSSENSDEPLNLTFIKKEFSNSNNLDNKSTNPVFSMNPFSAKPLYTALPPQSAFPPATFMPPVQTSIPGLRPYPGLDQMSFLPHMAYTYPTGAATFADMQQRRKYQRKQGFQGELLDGAQDYMSGLDDMTDSDSCLSRKKIKKTESGMYACDLCDKTFQKSSSLLRHKYEHTGKRPHQCQICKKAFKHKHHLIEHSRLHSGEKPYQCDKCGKRFSHSGSYSQHMNHRYSYCKREAEEREAAEREAREKGHLEPTELLMNRAYLQSITPQGYSDSEERESMPRDGESEKEHEKEGEDGYGKLGRQDGDEEFEEEEEESENKSMDTDPETIRDEEETGDHSMDDSSEDGKMETKSDHEEDNMEDGM
